# Assay results reported in the supplement of paper PMC12889115.
# This is one part of the list. Values are raw readings; no control value is given beside them.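 In the initial screen, polymyxin B was used at a concentration that permeabilizes Salmonella's outer membrane but not its inner membrane. Maximum growth was set by DMSO wells with or without polymyxin B. Since plates varied, data were ranked per plate, and compounds giving the lowest OD600 advanced as hits.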
# Tested on: Salmonella enterica serovar Typhimurium SL1344
# Assay: bacterial growth OD600 after 18 h with compound and polymyxin B; higher = more bacterial growth (less inhibition)
# Settings: 50 µM, Mueller-Hinton broth
structure (smiles),measurement,setting,value
CC(C)CCC(=O)N1CCC(C2(Cc3ccc(F)cc3)NC(=O)N(CC3CCCO3)C2=O)CC1 (stereo unspecified),bacterial growth OD600,polymyxin B 0.75 µg/mL,0.797
COc1ccc(CC2(CCC(=O)NCCc3ccc(Cl)cc3)CCC(=O)N2)c2ccccc12 (stereo unspecified),bacterial growth OD600,polymyxin B 0.75 µg/mL,0.084
COCC(C)Nc1ccc(-c2nc(-c3cccc(OC)c3OC)no2)cn1 (stereo unspecified),bacterial growth OD600,polymyxin B 0.75 µg/mL,0.775
CC(=O)C1CCCN(C(=O)c2cc(NS(=O)(=O)N(C)C)cc3nc(CC(C)C)n(C)c23)C1 (stereo unspecified),bacterial growth OD600,polymyxin B 0.75 µg/mL,0.847
Cc1oc(-c2ccc(NC(=O)Cc3ccccc3)cc2)nc1CNC(=O)Cc1cccc2ccccc12,bacterial growth OD600,polymyxin B 0.75 µg/mL,0.833
CCc1ccc(CN(C)C(=O)C2CCC(=O)N(CCCN3CCCC3=O)C2)cc1 (stereo unspecified),bacterial growth OD600,polymyxin B 1 µg/mL,0.932
CCOC(=O)C1(Cc2cccc(OC)c2)CCCN(S(=O)(=O)c2cccs2)C1 (stereo unspecified),bacterial growth OD600,polymyxin B 1 µg/mL,0.566
CCN1CCCC1CNC(=O)CCC1CCN(CCCC(F)(F)F)CC1 (stereo unspecified),bacterial growth OD600,polymyxin B 1 µg/mL,1.17
CCOC(=O)C1(Cc2cccc(OC)c2)CCN(Cc2ccc(COC)o2)CC1,bacterial growth OD600,polymyxin B 1 µg/mL,1.07
COc1ccc(F)c(CNC2COc3c(cccc3OC)C2)c1 (stereo unspecified),bacterial growth OD600,polymyxin B 1 µg/mL,0.892
COc1ccccc1C(=O)Nc1cccc(N2CCC(NCc3ccccc3C)CC2)c1,bacterial growth OD600,polymyxin B 0.75 µg/mL,0.794
COc1ccc(-c2nn(-c3ccccc3C)cc2CN(C)Cc2ccon2)cc1F,bacterial growth OD600,polymyxin B 1 µg/mL,0.01
CC(=O)N1CCC[C@H]1C(=O)N1CCc2onc(-c3cccc4ccccc34)c2C1,bacterial growth OD600,polymyxin B 1 µg/mL,0.905
O=C(CCC(F)(F)F)N1CCC2(CCCN(Cc3ccccc3F)C2=O)C1 (stereo unspecified),bacterial growth OD600,polymyxin B 1 µg/mL,1.01
O=C1N(Cc2ccccc2F)CCCC12CCN(C1CCCC1)C2 (stereo unspecified),bacterial growth OD600,polymyxin B 1 µg/mL,0.866
CCCn1c(C)c(CC(=O)N(C)Cc2nnc(C)o2)c2c1CC(C)(C)CC2=O,bacterial growth OD600,polymyxin B 1 µg/mL,0.842
O=C(c1ccncc1)N1CCc2onc(C(c3ccccc3)c3ccccc3)c2C1,bacterial growth OD600,polymyxin B 0.75 µg/mL,0.721
CCOC(=O)N1CCC(NC(=O)c2oc3c(F)cccc3c2C)CC1,bacterial growth OD600,polymyxin B 1 µg/mL,1.02
O=C(CC1CCCC1)N1CCC(C2(c3ccccn3)NC(=O)N(CCc3cccs3)C2=O)CC1 (stereo unspecified),bacterial growth OD600,polymyxin B 0.75 µg/mL,0.771
CC(C)c1nc(CNC(=O)c2ccc(N3CCSCC3)nc2)no1,bacterial growth OD600,polymyxin B 1 µg/mL,0.871
CC(C)CCNC(=O)c1cn(C2CCCC2)cc(C(=O)NCC(C)(C)CN(C)C)c1=O,bacterial growth OD600,polymyxin B 0.75 µg/mL,0.808
CC1(C)Cc2nc(N3CCOCC3)ncc2C(NC(=O)COc2ccccc2)C1 (stereo unspecified),bacterial growth OD600,polymyxin B 0.75 µg/mL,0.952
COc1ccc(CC2=NOC(CNC(=O)c3c(F)cccc3F)C2)cc1 (stereo unspecified),bacterial growth OD600,polymyxin B 0.75 µg/mL,0.807
Cc1ncsc1C(=O)N1CCc2onc(-c3cccc4ccccc34)c2C1,bacterial growth OD600,polymyxin B 0.75 µg/mL,0.6
Cc1cnc(N2C[C@H]3OC(=O)N(C4CCCC4)[C@H]3C2)nc1N(C)C,bacterial growth OD600,polymyxin B 0.75 µg/mL,0.831
COc1ccc(NC2CCCN(C(=O)/C=C/c3ccccn3)C2)cc1OC (stereo unspecified),bacterial growth OD600,polymyxin B 1 µg/mL,0.806
COCc1ccc(C(=O)N2CCOC(Cc3cccc(OC)c3)C2)o1 (stereo unspecified),bacterial growth OD600,polymyxin B 0.75 µg/mL,0.96
Cc1ccccc1CCC1CCCN(C(=O)C2CCC2)C1 (stereo unspecified),bacterial growth OD600,polymyxin B 0.75 µg/mL,0.225
Cc1nc2ccccc2n1Cc1cc(C(=O)N(C)C)n[nH]1,bacterial growth OD600,polymyxin B 1 µg/mL,1.04
OC(Cc1ccccc1)c1ccc2c(c1)CN(Cc1ccc3c(c1)OCO3)CCO2 (stereo unspecified),bacterial growth OD600,polymyxin B 0.75 µg/mL,0.121
O=C1N(CC2CCC2)CCCC1(O)CNC12CC3CC(CC(C3)C1)C2 (stereo unspecified),bacterial growth OD600,polymyxin B 1 µg/mL,0.749

# Taken from the results shown (six entries):
structure (smiles),measurement,setting,value
CC(=O)N1CCC[C@H]1C(=O)N1CCc2onc(-c3cccc4ccccc34)c2C1,bacterial growth OD600,polymyxin B 1 µg/mL,0.905
O=C(CCC(F)(F)F)N1CCC2(CCCN(Cc3ccccc3F)C2=O)C1 (stereo unspecified),bacterial growth OD600,polymyxin B 1 µg/mL,1.01
O=C1N(Cc2ccccc2F)CCCC12CCN(C1CCCC1)C2 (stereo unspecified),bacterial growth OD600,polymyxin B 1 µg/mL,0.866
CCCn1c(C)c(CC(=O)N(C)Cc2nnc(C)o2)c2c1CC(C)(C)CC2=O,bacterial growth OD600,polymyxin B 1 µg/mL,0.842
O=C(c1ccncc1)N1CCc2onc(C(c3ccccc3)c3ccccc3)c2C1,bacterial growth OD600,polymyxin B 0.75 µg/mL,0.721
CCOC(=O)N1CCC(NC(=O)c2oc3c(F)cccc3c2C)CC1,bacterial growth OD600,polymyxin B 1 µg/mL,1.02
